PubChem BioAssay AID1508588, Peter MacCallum Cancer Centre | 2020

Assay: 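Which gene losses make BRAF-mutant melanoma cells more responsive to vemurafenib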 (primary screen)
Cell system: human WM266.4 melanoma cells (BRAF V600 mutant)
Reagents: siRNA pool against human genes, 40 nM
Duration: 96 h from transfection to read-out
Challenge: vemurafenib 300 nM (about IC25), added 48 h after transfection, for 48 h; comparison arm got DMSO vehicle only
Read-out: 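Ratios to non-targeting siRNA for cell gain, counted as DAPI nuclei after minus before drug and averaged over two replicates, and for absorbance-read medium lactate per cell; both binned into fold-change classes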
Reading the numbers: cell gain with vemurafenib: higher = more cell gain than with non-targeting siRNA; lactate per cell with vemurafenib: higher = more lactate made per cell
Active means: 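Enhancement is called by pairing each knock-down's vehicle-arm and drug-arm fold-change classes for viability or glycolysis; which class combinations qualify is not given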
Meaning of the calls: active = enhances vemurafenib effect; inactive = no enhancement seen
This is a random part of about 18,000 reagents tested. 790 of all reagents (4.4%) count as active. 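Calls rest on a combination of fold-change classes in drug and vehicle arms, not all shown here.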 Reagent sequences are not shown.

NUP62CL scored cell gain with vemurafenib 0.58; lactate per cell with vemurafenib 1.1; inactive.
After knock-down of CACFD1 the results were cell gain with vemurafenib 0.71; lactate per cell with vemurafenib 0.6; inactive.
With knock-down of RUFY2 the results were cell gain with vemurafenib 0.57; lactate per cell with vemurafenib 1.39; inactive.
TMEM154 scored cell gain with vemurafenib 0.66; lactate per cell with vemurafenib 0.72; inactive.
Silencing of SPATA45 gave: cell gain with vemurafenib 0.39; lactate per cell with vemurafenib 1.79; inactive.
Depletion of ERCC6L gave: cell gain with vemurafenib 0.54; lactate per cell with vemurafenib 0.58; inactive.
SMPDL3A scored cell gain with vemurafenib 0.9; lactate per cell with vemurafenib 0.6; inactive.
KLHL10 gave cell gain with vemurafenib 0.83; lactate per cell with vemurafenib 1.25; inactive.
Silencing of FILIP1L resulted in: cell gain with vemurafenib 0.75; lactate per cell with vemurafenib 0.68; inactive.
Depletion of TMEM63B gave: cell gain with vemurafenib 0.39; lactate per cell with vemurafenib 0.66; inactive.
With knock-down of BAMBI, the screen gave cell gain with vemurafenib 0.33; lactate per cell with vemurafenib 1.46; inactive.
For CDH24 the deposit lists cell gain with vemurafenib 0.16; lactate per cell with vemurafenib 1.8; inactive.
For CDC50A, the values are cell gain with vemurafenib 0.95; lactate per cell with vemurafenib 0.66; inactive.
BCAS4 scored cell gain with vemurafenib 0.84; lactate per cell with vemurafenib 0.32; inactive.
Depletion of HHEX resulted in: cell gain with vemurafenib 0.35; lactate per cell with vemurafenib 1.94; inactive.
Knock-down of FAM135A resulted in: cell gain with vemurafenib 0.76; lactate per cell with vemurafenib 1.18; inactive.
With knock-down of ZNF665 the results were cell gain with vemurafenib 0.59; lactate per cell with vemurafenib 0.94; inactive.
After knock-down of ZSCAN26, the screen gave cell gain with vemurafenib 0.64; lactate per cell with vemurafenib 1.06; inactive.
Against KDM8, the values are cell gain with vemurafenib 0.76; lactate per cell with vemurafenib 0.48; inactive.

Copied from the listing (3 entries):
SPATA45: cell gain with vemurafenib = 0.39; lactate per cell with vemurafenib = 1.79; activity call = inactive
ERCC6L: cell gain with vemurafenib = 0.54; lactate per cell with vemurafenib = 0.58; activity call = inactive
SMPDL3A: cell gain with vemurafenib = 0.9; lactate per cell with vemurafenib = 0.6; activity call = inactive

More records follow:
Knock-down of BOLA3 gave: cell gain with vemurafenib 0.73; lactate per cell with vemurafenib 0.54; inactive.
CRB3 showed cell gain with vemurafenib 0.22; lactate per cell with vemurafenib 0.86; inactive.
Knock-down of HMG20A came out at: cell gain with vemurafenib 0.58; lactate per cell with vemurafenib 1; inactive.
After knock-down of MSANTD4, the record shows cell gain with vemurafenib 1.04; lactate per cell with vemurafenib 0.82; inactive.
After knock-down of CLIC1 the results were cell gain with vemurafenib 0.49; lactate per cell with vemurafenib 1.82; inactive.
Knock-down of TMC8 resulted in: cell gain with vemurafenib 0.94; lactate per cell with vemurafenib 0.49; inactive.
Knock-down of POU2F1 resulted in: cell gain with vemurafenib 0.88; lactate per cell with vemurafenib 1.12; inactive.
ZC3H18 showed cell gain with vemurafenib 0.47; lactate per cell with vemurafenib 1.62; inactive.
With knock-down of WDR72, the screen gave cell gain with vemurafenib 0.95; lactate per cell with vemurafenib 0.72; inactive.
With knock-down of CD86 the results were cell gain with vemurafenib 0.15; lactate per cell with vemurafenib 1.21; inactive.
Against PLA2R1, the values are cell gain with vemurafenib 0.31; lactate per cell with vemurafenib 1.35; inactive.
MAGIX showed cell gain with vemurafenib 0.01; lactate per cell with vemurafenib 0.28; inactive.
ZNF43 scored cell gain with vemurafenib 0.24; lactate per cell with vemurafenib 1; inactive.
With knock-down of POTED, the screen gave cell gain with vemurafenib 0.79; lactate per cell with vemurafenib 0.49; inactive.
Silencing of FAM47B gave: cell gain with vemurafenib 0.84; lactate per cell with vemurafenib 0.68; inactive.
MYRIP scored cell gain with vemurafenib 0.76; lactate per cell with vemurafenib 1.06; inactive.
SCNN1D scored cell gain with vemurafenib 0.98; lactate per cell with vemurafenib 0.93; inactive.
DSCR4 showed cell gain with vemurafenib 0.73; lactate per cell with vemurafenib 0.72; inactive.
With knock-down of ARHGAP1 the results were cell gain with vemurafenib 0.42; lactate per cell with vemurafenib 0.74; inactive.
For C2CD5, the values are cell gain with vemurafenib 0.53; lactate per cell with vemurafenib 1.05; inactive.
After knock-down of HFM1 the results were cell gain with vemurafenib 0.82; lactate per cell with vemurafenib 0.79; inactive.
